These results are taken from PubChem BioAssay AID2685 (National Center for Advancing Translational Sciences (NCATS), 2010).

As usually defined, the AC50 is the midpoint of the concentration-response curve, whichever way the signal moves.

The list shows a part of the results. Shown are side measurements of this screen, not its main read-out; they come without a call. The list favours compounds with an active or inconclusive main result. The note in brackets gives the kind of curve behind each potency; many fits are weak.

The experiment is described as follows: qHTS Assay for Lipid Storage Modulators in Drosophila S3 Cells.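 On cell number change: cells counted by Cell Tracker Red CMTPX staining in the red channel.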 Particulars: BODIPY lipid droplet fluorescence, 18-24 h; for cell number change: measured here: cell count max response, cells fed with added oleic acid. The method, boiled down:
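Drosophila S3 cells got compounds at several concentrations plus oleic acid (400 uM solution). Laser-scanning cytometry with 488 nm excitation read lipid droplets at 500-530 nm and cells at 575-640 nm. Percent activity was relative to 20 uM Triacsin C.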
Background: Quantitative high-throughput screening tests each substance at several concentrations.

The mark [1] stands for this setting: measured here: lipid fluorescence (Fed channel) AC50, cells fed with added oleic acid.
Setting [2] is: measured here: cell number channel AC50, cells fed with added oleic acid.

Regarding `CCN1CCN(CCC(=O)Nc2cccc(C)c2)CC1`, the cell number change stood at 6.71%. For the same molecule, the AC50 under setting [1] is 3.66 µM [falling, single point].
For the molecule `Cc1ccc(C)c(N2CCN(C(=O)CCCCCn3c(=S)[nH]c4ccc(N5CCOCC5)cc4c3=O)CC2)c1`, the cell number change is -31.1%. For the same molecule, the AC50 under setting [2] was 7.31 µM [falling, partial curve]. Moreover, the AC50 under setting [1] is 14.6 µM [falling, partial curve].
Turning to `Cc1cc(C(=O)NCCN2C(=O)S/C(=C\c3cccs3)C2=O)ccc1[N+](=O)[O-]`, the cell number change was found to be 1.96%.
With `CC(NC(=O)CN(C)S(=O)(=O)c1ccc2c(c1)c(=O)n(C)c(=O)n2C)c1ccccc1` (stereo not drawn), the cell number change is -16.8%. The AC50 under setting [1] was 0.651 µM [falling, full curve].
`CCC(C)NCCOc1ccccc1C` (stereo not drawn): the cell number change is 26.7%. Also, under setting [2], the AC50 was 0.231 µM [rising, full curve, poor fit].
For `O=C(CN1C(=O)NC(c2ccccc2)(c2ccccc2)C1=O)NCC(=O)Nc1ccc(F)cc1`, the cell number change is 6.96%. Besides, the AC50 under setting [1] was 3.26 µM [rising, partial curve, poor fit].
As for `Cc1nn(-c2ccccc2)nc1C(=O)OCC(=O)N1CCC(C)CC1`, the cell number change was -26.8%. Besides, under setting [1], the AC50 was 3.66 µM [falling, single point].
`COc1ccc(C(C(=O)NC2CCCCC2)N(C(=O)c2ccccn2)c2cccnc2)c(OC)c1` (stereo not drawn): the cell number change is 17.4%.
Turning to `COc1ccc(CCNC(=O)c2coc3ccccc3c2=O)cc1OC`, the cell number change is -12.5%. For the same molecule, the AC50 under setting [2] was 0.00461 µM [falling, full curve, poor fit]. Besides, the AC50 under setting [1] was 0.58 µM [falling, single point].
Regarding `CC(C)(C)NC(=O)CSc1nc(-c2ccc(F)cc2)cs1`, the cell number change stood at 17.5%. Moreover, the AC50 under setting [1] was 29.1 µM [rising, single point].
`O=C1c2ccc(-c3ccc4c(c3)C(=O)N(CCCO)C4=O)cc2C(=O)N1CCCO`: the cell number change was -58%. In addition, under setting [2], the AC50 is 5.17 µM [falling, full curve, poor fit].
As to `Cc1ccc2c(c1)sc(=NC(=O)c1cccs1)n2C`, the cell number change is 57.1%. Moreover, the AC50 under setting [2] was 0.13 µM [rising, full curve, poor fit]. Further, the AC50 under setting [1] is 0.0291 µM [rising, full curve].
For the molecule `CCCCn1c(C)cc(/C=C(\C#N)C(=O)O)c1C`, the cell number change was found to be 41.8%. The AC50 under setting [2] is 8.2 µM [rising, partial curve]. In addition, under setting [1], the AC50 is 0.58 µM [falling, full curve, poor fit].
With `O=C(COc1ccc(S(=O)(=O)N2CCCCC2)cc1)N1CCOCC1`, the cell number change was -17.8%.
Regarding `O=C(CN1C(=O)c2cccc3cccc1c23)NC1CCCCC1`, the cell number change was 11.5%. Moreover, under setting [1], the AC50 was 0.0731 µM [falling, partial curve, poor fit].
With `CC(C)(C)c1nc(NC(=O)Nc2ccccc2)sc1Br`, the cell number change is -62.6%. Moreover, under setting [2], the AC50 was 11.2 µM [falling, single point].
